# Results from the supplement of paper PMC8728848.
# Some of the results follow.
# B1: Epa20 (Candida glabrata) (protein)
# chain: MGSSHHHHHHSSGLVPRGSHMASSNIPNNYPLGCSNKYSGHLPGLKMELYSYNYVNPRHPDPQNPGKLDQLYDPNLLGTYECFDSSYKDINYPRVGYKSKTLIGRSDGVSGILNFNFVPPWGCMPQKGQLPPAYNFKSNITLSNFTMILFGYFKPKISGNHIFSLHGDDLIYLNFGAGNAFDCCRQESSADNFGNYQAFSLWGINWEKKTLTVYLDMNTYYPIRIFYNNRDYQAIFNFSFKTEFDSSPVIDFQDYFFFLRDIDGGCPGEV
# Experiments:
# Assay in all cases: glycan array binding signal (z-score within array); higher = stronger binding
# Details in all cases: glycan notation: IUPAC condensed, linker removed
# [1] = target: Neu5Ac(a2-3)Gal(b1-4)GlcNAc(b1-3)[Neu5Ac(a2-3)Gal(b1-4)GlcNAc(b1-6)]GalNAc
# Method in brief: (§1)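 Glycan array data came from 3228 arrays in the Consortium for Functional Glycomics database, and only arrays with an available protein sequence were kept. Glycan names were put into IUPAC-condensed notation, and columns mapping to the same glycan were averaged. The binding signal is a within-array Z-score, averaged across arrays of one protein sequence run at different concentrations or buffers and across linkers. A negative Z-score can be read as non-binding.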
# [2] = target: Neu5Ac(a2-3)Gal(b1-4)GlcNAc(b1-6)GalNAc
# Method in brief: as §1
# [3] = target: Neu5Ac(a2-3)Gal(b1-4)GlcNAc(b1-6)[Gal(b1-3)]GalNAc
# Method in brief: as §1
# [4] = target: Neu5Ac(a2-3)Gal(b1-4)GlcNAc(b1-6)[Neu5Ac(a2-3)Gal(b1-3)]GalNAc
# Method in brief: as §1
# [5] = target: Neu5Ac(a2-3)Gal(b1-4)GlcNAc6S
# Method in brief: as §1
# [6] = target: Neu5Ac(a2-3)Gal(b1-4)[Fuc(a1-3)]GlcNAc
# Method in brief: as §1
# [7] = target: Neu5Ac(a2-3)Gal(b1-4)[Fuc(a1-3)]GlcNAc(b1-2)Man
# Method in brief: as §1
# [8] = target: Neu5Ac(a2-3)Gal(b1-4)[Fuc(a1-3)]GlcNAc(b1-3)Gal
# Method in brief: as §1
# [9] = target: Neu5Ac(a2-3)Gal(b1-4)[Fuc(a1-3)]GlcNAc(b1-3)Gal(b1-4)GlcNAc
# Method in brief: as §1
# [10] = target: Neu5Ac(a2-3)Gal(b1-4)[Fuc(a1-3)]GlcNAc(b1-3)Gal(b1-4)[Fuc(a1-3)]GlcNAc(b1-3)Gal(b1-4)[Fuc(a1-3)]GlcNAc
# Method in brief: as §1
# [11] = target: Neu5Ac(a2-3)Gal(b1-4)[Fuc(a1-3)]GlcNAc(b1-3)GalNAc
# Method in brief: as §1
# [12] = target: Neu5Ac(a2-3)Gal(b1-4)[Fuc(a1-3)]GlcNAc(b1-6)[Gal(b1-3)]GalNAc
# Method in brief: as §1
# [13] = target: Neu5Ac(a2-3)Gal(b1-4)[Fuc(a1-3)]GlcNAc(b1-6)[Neu5Ac(a2-3)Gal(b1-3)]GalNAc
# Method in brief: as §1
# [14] = target: Neu5Ac(a2-3)Gal(b1-4)[Fuc(a1-3)]GlcNAc6S
# Method in brief: as §1
# [15] = target: Neu5Ac(a2-3)Gal6S(b1-4)GlcNAc
# Method in brief: as §1
# [16] = target: Neu5Ac(a2-3)Gal6S(b1-4)[Fuc(a1-3)]GlcNAc
# Method in brief: as §1
# Neu5Ac(a2-3)GalNAc = target: Neu5Ac(a2-3)GalNAc
# Method in brief: as §1
# [17] = target: Neu5Ac(a2-3)GalNAc(b1-4)GlcNAc
# Method in brief: as §1
# [18] = target: Neu5Ac(a2-3)[GalNAc(b1-4)]Gal(b1-4)Glc
# Method in brief: as §1
# [19] = target: Neu5Ac(a2-3)[GalNAc(b1-4)]Gal(b1-4)GlcNAc
# Method in brief: as §1
# [20] = target: Neu5Ac(a2-3)[GalNAc(b1-4)]Gal(b1-4)GlcNAc(b1-3)GalNAc
# Method in brief: as §1
# [21] = target: Neu5Ac(a2-3)[Neu5Ac(a2-6)]GalNAc
# Method in brief: as §1
# Neu5Ac(a2-6)Gal = target: Neu5Ac(a2-6)Gal
# Method in brief: as §1
# [22] = target: Neu5Ac(a2-6)Gal(b1-3)GlcNAc(b1-3)[Gal(b1-4)GlcNAc(b1-6)]Gal(b1-4)Glc
# Method in brief: as §1
# Neu5Ac(a2-6)Gal(b1-4)Glc = target: Neu5Ac(a2-6)Gal(b1-4)Glc
# Method in brief: as §1
# [23] = target: Neu5Ac(a2-6)Gal(b1-4)GlcNAc
# Method in brief: as §1
# [24] = target: Neu5Ac(a2-6)Gal(b1-4)GlcNAc(b1-2)Man
# Method in brief: as §1
# [25] = target: Neu5Ac(a2-6)Gal(b1-4)GlcNAc(b1-2)Man(a1-3)Man(b1-4)GlcNAc(b1-4)GlcNAc
# Method in brief: as §1
# [26] = target: Neu5Ac(a2-6)Gal(b1-4)GlcNAc(b1-2)Man(a1-3)[Gal(b1-4)GlcNAc(b1-2)Man(a1-6)]Man(b1-4)GlcNAc(b1-4)GlcNAc
# Method in brief: as §1
# [27] = target: Neu5Ac(a2-6)Gal(b1-4)GlcNAc(b1-2)Man(a1-3)[GlcNAc(b1-2)Man(a1-6)]Man(b1-4)GlcNAc(b1-4)GlcNAc
# Method in brief: as §1
# [28] = target: Neu5Ac(a2-6)Gal(b1-4)GlcNAc(b1-2)Man(a1-3)[GlcNAc(b1-4)][Neu5Ac(a2-6)Gal(b1-4)GlcNAc(b1-2)Man(a1-6)]Man(b1-4)GlcNAc(b1-4)GlcNAc
# Method in brief: as §1
binder,measurement,setting,value
B1,glycan array binding signal (z-score),[1],2.82
same,glycan array binding signal (z-score),[2],0.054
same,glycan array binding signal (z-score),[3],1.14
same,glycan array binding signal (z-score),[4],-0.458
same,glycan array binding signal (z-score),[5],-0.036
same,glycan array binding signal (z-score),[6],-0.76
same,glycan array binding signal (z-score),[7],-0.141
same,glycan array binding signal (z-score),[8],-0.678
same,glycan array binding signal (z-score),[9],1.25
same,glycan array binding signal (z-score),[10],-0.755
same,glycan array binding signal (z-score),[11],2.98
same,glycan array binding signal (z-score),[12],2.21
same,glycan array binding signal (z-score),[13],1.62
same,glycan array binding signal (z-score),[14],-0.01
same,glycan array binding signal (z-score),[15],-0.429
same,glycan array binding signal (z-score),[16],-0.803
same,glycan array binding signal (z-score),Neu5Ac(a2-3)GalNAc,-0.182
same,glycan array binding signal (z-score),[17],-0.203
same,glycan array binding signal (z-score),[18],-1.14
same,glycan array binding signal (z-score),[19],-0.734
same,glycan array binding signal (z-score),[20],1.15
same,glycan array binding signal (z-score),[21],-0.143
same,glycan array binding signal (z-score),Neu5Ac(a2-6)Gal,0.044
same,glycan array binding signal (z-score),[22],-0.719
same,glycan array binding signal (z-score),Neu5Ac(a2-6)Gal(b1-4)Glc,-0.117
same,glycan array binding signal (z-score),[23],-0.069
same,glycan array binding signal (z-score),[24],0.053
same,glycan array binding signal (z-score),[25],0.128
same,glycan array binding signal (z-score),[26],0.082
same,glycan array binding signal (z-score),[27],-0.177
same,glycan array binding signal (z-score),[28],-0.397

# Seven entries from above, bar-delimited:
binder | measurement | setting | value
B1 | glycan array binding signal (z-score) | [16] | -0.803
same | glycan array binding signal (z-score) | Neu5Ac(a2-3)GalNAc | -0.182
same | glycan array binding signal (z-score) | [17] | -0.203
same | glycan array binding signal (z-score) | [18] | -1.14
same | glycan array binding signal (z-score) | [19] | -0.734
same | glycan array binding signal (z-score) | [20] | 1.15
same | glycan array binding signal (z-score) | [21] | -0.143
